Data reported in PubChem BioAssay AID1347075 (National Center for Advancing Translational Sciences (NCATS), 2019).
The whole screen tested about 400,000 compounds, of which about 5,500 (1.4%) were called active. This list was built around the results that the source calls inconclusive (neither active nor inactive); the mix of calls is not that of the screen. The call rests on the fitted dose curve; in most records, active means well fitted cell-killing curve with a large enough effect; inconclusive means small, poorly fitted or top-dose-only effect, or effect the other way; inactive means flat fitted curve, though single readings scatter. Where the call is inconclusive, the potency comes from a doubtful curve fit.

Experiment: qHTS assay for MDR1-selective chemotherapeutics: Primary screen using the parental adenocarcinoma cell KB-3-1; further: nearly all actives have a fitted effect of over 60% in size
Settings: KB-3-1 viability, CellTiter-Glo ATP luminescence, 72 h; activity change, negative = cytotoxic: at 46.1 µM (top of the series)
How it was run: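 Cytotoxicity in the drug-sensitive parental line KB-3-1 was scored as loss of CellTiter-Glo luminescence following 72 h incubation with compound. Values come from curve fitting of normalized concentration-response data.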
On the % scale 0 is the no-effect control and ±100 the full control effect; potency means the concentration at half of the fitted maximal effect.

Structure (SMILES)	Potency	activity change, negative = cytotoxic
Cn1c(-c2ccc(F)cc2)cnc1NCc1ccccc1	inconclusive: 18.4 µM [cytotoxic, single point]	
CCCC(=O)Nc1ccc(-c2nc3ncccc3o2)cc1C		inactive: 15.9%
COc1cc(C2c3c(-c4cc(C)ccc4O)n[nH]c3C(=O)N2CCCO)ccc1OCCC(C)C (stereo not given)		inactive: 7.68%
Cc1cc(C(=O)O[C@H]2[C@H](Cc3ccccc3)NS(=O)(=O)[C@H]3C[C@@H]4C=C[C@]23O4)ccc1[N+](=O)[O-]	inconclusive: 14.6 µM [cytotoxic, partial curve, poor fit]	
COC(=O)c1ccc(N2CCOCC2)c(NC(=O)Nc2cccc(OC)c2)c1		inactive: -4.22%
N#Cc1cnn(-c2ccc([N+](=O)[O-])cc2[N+](=O)[O-])c1N	active: 18.4 µM	
CC(C)(C)c1ccc(C(=O)O)c(C(=O)c2ccc(C(=O)O)cc2)c1		inactive: 2.96%
NC(=O)CN(c1ccc([N+](=O)[O-])cc1)S(=O)(=O)c1ccccc1		inactive: -1.18%
CCOC(=O)c1nnc(-c2cccs2)nc1Oc1ccc(Cl)cc1		inactive: 2.91%
Cc1nc(-c2cccnc2)sc1CCNS(=O)(=O)c1ccc(F)cc1		inactive: 13.5%
C=CCc1cccc(/C=N/NC(=O)c2ccccc2Br)c1O	inconclusive: 29.1 µM [cytotoxic, single point]	
O=C(Nc1cc2c(cc1Br)OCCO2)c1ccc(=O)[nH]c1	inconclusive: 29.1 µM [cytotoxic, single point]	
COC(=O)c1sc(NC(=O)c2cc(-c3ccccc3)nc3ccccc23)c(C#N)c1C	active: 1.46 µM	
O=C(Nc1nc2ccc(Oc3ccccc3)cc2s1)c1cc([N+](=O)[O-])ccc1N1CCOCC1		inactive: 14.9%
COc1cc(O)c(C(CC(=O)N2CCC(Cc3ccccc3)CC2)c2ccc3c(c2)OCO3)c(OC)c1 (stereo not given)	inconclusive: 28.2 µM [cytotoxic, single point]	
CN(C)CCCNc1cc(Cl)c(S(=O)(=O)N2CCCCC2)cc1C(=O)O		inactive: -7.28%
Nn1cnnc1N/N=C\c1ccc(-c2ccccc2[N+](=O)[O-])o1	active: 7.31 µM	
COc1ccc(OC)c(CCNC(=O)C(C)n2nc(C)c3c(C)n(-c4ccccc4)nc3c2=O)c1 (stereo not given)	inconclusive: 18.4 µM [cytotoxic, single point]	
NC(=S)NN=C1c2ccccc2-c2ccccc21		inactive: -1.33%
CC(C#Cc1ccc2c(c1)COc1c3ccccc3nn1-2)OC(C)(C)C (stereo not given)	inconclusive: 29.1 µM [cytotoxic, single point]	
COc1ccc(NC(=O)CCOc2cc(C)ccc2C)cc1S(=O)(=O)N1CCCCC1	inconclusive: 29.1 µM [cytotoxic, single point]	
O=C(NC1CCN(Cc2ccccc2)CC1)C1CCN(S(=O)(=O)c2ccccc2)CC1	inconclusive: 13 µM [cytotoxic, partial curve, poor fit]	
COc1cc2c(=O)n(CCC(=O)NCC3CCCO3)c(=O)n(CC(=O)Nc3ccc(C)c(C)c3)c2cc1OC (stereo not given)		inconclusive: -11.1%
CC(C)c1cccc(OCCn2c(-c3ccc(Cl)cc3)nc3ccccc3c2=O)c1		inconclusive: -2.16%

Structure (SMILES)	Potency	activity change, negative = cytotoxic
Cc1ccc(Cl)c2sc(NC(=O)C3CC3)nc12		inactive: -2.87%
Cc1cc(C)c(C)c(S(=O)(=O)N2CCC(C(=O)NNC(=O)c3ccccc3O)CC2)c1C	inconclusive: 25.9 µM [cytotoxic, single point]	
CSc1nc2ccccc2cc1/C=C(\C#N)c1cccc(Cl)c1	active: 20.6 µM	
N#Cc1cccc(OCCCN2CCC(C(O)(c3ccccc3)c3ccccc3)CC2)c1	inconclusive: 23.1 µM [cytotoxic, single point]	
COc1cccc(CCNC(=O)c2c(O)nc3ccccn3c2=O)c1	inconclusive: 23.1 µM [cytotoxic, single point]	
O=C(NCc1ccc(Cl)cc1)c1ccc(NC(=O)C2CCCO2)cc1 (stereo not given)	inconclusive: 18.4 µM [rising, partial curve, poor fit]	
COCCCNC(=O)C1CCN(c2nn3cc(-c4ccc(F)cc4)nc3s2)CC1		inactive: -22.6%
CCOc1ccccc1NC(=O)c1cnn2c(C(F)F)cc(-c3ccccc3)nc12	active: 18.4 µM	
CCc1ccccc1N(CC)C(=O)CCc1nc(-c2ccc(C)cc2)no1	inconclusive: 29.1 µM [cytotoxic, single point]	
COCCCNC(=O)CC1C[C@H](C(=O)N2CCCCC2)[C@@]2(C)c3[nH]c4ccc(OC)cc4c3CCN2C1=O (stereo not given in full)		inactive: 5.27%
C[C@@H]1CN([C@@H](C)CO)C(=O)c2cccc(NS(C)(=O)=O)c2O[C@H]1CN(C)CC1CCCCC1	inconclusive: 11.6 µM [cytotoxic, partial curve, poor fit]	
Nc1nccc(-c2cc(-c3ccc(Cl)cc3Cl)no2)n1		inactive: -21.9%
Cc1ccc(N=C(NOC(=O)c2ccccc2)c2nonc2N)c(C)c1	inconclusive: 29.1 µM [cytotoxic, single point]	
Clc1ccc(-n2nnnc2Sc2ncnc3sccc23)cc1	inconclusive: 20.6 µM [cytotoxic, partial curve, poor fit]	
CC1=C(C(=O)Nc2ccccc2)C(c2cccs2)n2nc(SCc3ccccc3F)nc2N1 (stereo not given)		inactive: 4.79%
Cc1cc(=O)[nH]c2c1c(C)nn2C(C)(C)C	inconclusive: 29.1 µM [rising, single point]	
COc1ccc(N2CCN(c3ncnc4scc(-c5ccc(C)cc5)c34)CC2)cc1	inconclusive: 13 µM [cytotoxic, partial curve, poor fit]	
CC1C(=O)N(Cc2cn(CCC3OCCCO3)nn2)CCS(=O)(=O)N1Cc1ccc(-c2ccccc2)cc1 (stereo not given)		inactive: -15.1%
Cc1cccnc1NC(=S)Nc1ccc(Cl)c(Cl)c1	inconclusive: 29.1 µM [cytotoxic, single point]	
COc1ccc2cc(S(=O)(=O)N3CCCCC3)ccc2c1S(=O)(=O)N1CCCCC1	inconclusive: 23.1 µM [cytotoxic, partial curve, poor fit]	
O=S(=O)(c1ccc(Cl)cc1Br)N1CCCCC1	inconclusive: 29.1 µM [cytotoxic, single point]	
C/C(=N\NC(=O)Cc1cc(=O)[nH][nH]1)c1cccc([N+](=O)[O-])c1	inconclusive: 16.4 µM [rising, partial curve]	
CCOc1ccc(C(=O)Nc2ccc(-c3nc4ccccc4s3)cc2)cc1[N+](=O)[O-]	inconclusive: 13 µM [rising, partial curve, poor fit]	
Cc1ccc(NC(=O)CSc2nc(-c3ccco3)cc(C(F)(F)F)n2)cc1	inconclusive: 0.651 µM [cytotoxic, full curve, poor fit]	

Structure (SMILES)	Potency	activity change, negative = cytotoxic
COc1ccc(-c2cc(=O)oc3cc(O)ccc23)cc1		inactive: -2.86%
CCCOc1ccc(C2C3=C(Nc4nc(N)[nH]c(=O)c42)c2ccccc2C3=O)cc1 (stereo not given)	inconclusive: 16.4 µM [cytotoxic, partial curve, poor fit]	
c1cc2c(cc1C1=NNC(=NC3CC3)SC1)OCCO2	inconclusive: 18.4 µM [cytotoxic, single point]	
Cc1ccc(S(=O)(=O)N(C)CC(=O)N(C)Cc2cccs2)cc1		inactive: 12.8%
O=C(Cc1ccc(-n2cccc2)cc1)NCc1cccs1	active: 1.64 µM	
CCCCn1nnnc1C(c1cc2ccccc2o1)N1CCN(c2cc(C)nc3ccccc23)CC1 (stereo not given)	inconclusive: 29.1 µM [cytotoxic, single point]	
O=S(=O)(c1cccs1)N1CCN(Cc2ccccc2)CC1	inconclusive: 20.6 µM [cytotoxic, single point]	
O=C(NC(=S)Nc1cccc(S(=O)(=O)NC2=NCCC2)c1)c1cc(-c2ccco2)nc2ccccc12	active: 6.51 µM	
Fc1cc(F)c(F)c(SCCc2ccncc2)c1F	inconclusive: 25.9 µM [cytotoxic, single point]	
O=c1c2ccc(F)cc2sn1-c1ccccc1	inconclusive: 18.4 µM [cytotoxic, single point]	
COc1cc(C)cc2oc(=O)c(CC(=O)NCc3cccc(Cl)c3)c(C)c12		inactive: -23.3%
Cc1ccc(/C=N/NC(=O)Cc2ccc(Cl)cc2)c(O)c1	inconclusive: 20.6 µM [cytotoxic, partial curve]	
CC(=O)N1CCc2c(sc3nc(SCC(C)C)n(-c4ccc(F)c(Cl)c4)c(=O)c23)C1	inconclusive: 23.1 µM [cytotoxic, single point]	
COc1ccc(-n2nc(C)c3c(=O)c4c([nH]c32)CCCC4)cc1		inactive: -8.55%
COC(=O)c1ccc(C2C(C(=O)Nc3ccccc3)=C(C)Nc3nc4ccccc4n32)cc1 (stereo not given)	inconclusive: 29.1 µM [cytotoxic, single point]	
CC(=O)C1CCN(c2ncc(-c3cccc(N(C)C)c3)s2)CC1		inactive: 40.7%
Cn1nccc1NC(=O)Nc1cccc(Cl)c1Cl	inconclusive: 23.1 µM [cytotoxic, partial curve, poor fit]	
NCC/C=C1/c2ccccc2CSc2ccccc21	inconclusive: 22.4 µM [cytotoxic, single point]	
CCCCNC(=O)c1nc(-c2cnccn2)oc1-c1ccc(Cl)cc1	inconclusive: 16.4 µM [rising, partial curve, poor fit]	
Fc1ccc(CN(Cc2ccccc2)C(c2cccs2)c2nnnn2C2CCCCC2)cc1 (stereo not given)	inconclusive: 29.1 µM [cytotoxic, single point]	
Cc1nn2c(N3CCN(C(=O)c4ccco4)CC3)cc(C(C)(C)C)nc2c1-c1ccccc1	inconclusive: 18.4 µM [cytotoxic, single point]	
CCN(CC)c1ccc(/C=N/Nc2nc(C)cc(=O)[nH]2)c(O)c1	active: 1.16 µM	
